The values below are quoted from earlier work in patent US8092800B2 (priority 2005, dated 2012).

Where only a bound is given, the exact number is not on record here.

The test system of the data set is Candida albicans strain AIDS 68. Conditions: strain AIDS 68, isolated from an AIDS patient as fluconazole resistant; cited from earlier work.

Turning to `OC(Cn1cncn1)(Cn1cncn1)c1ccc(F)cc1F` [Fluconazole, fluconazole], the minimum inhibitory concentration (MIC) (in general, the smallest concentration in the dilution series that meets the test's criterion for growth inhibition) is over 64 µg/mL.
